Measured values from the supplement of paper PMC10849652.
This is one part of the list.

Sequences of proteins named here, by UniProt entry; tags and fusion partners are left off. A change or cut given only in a name is not applied to a line headed by its entry.
UniProt P02794, whole entry, looked up: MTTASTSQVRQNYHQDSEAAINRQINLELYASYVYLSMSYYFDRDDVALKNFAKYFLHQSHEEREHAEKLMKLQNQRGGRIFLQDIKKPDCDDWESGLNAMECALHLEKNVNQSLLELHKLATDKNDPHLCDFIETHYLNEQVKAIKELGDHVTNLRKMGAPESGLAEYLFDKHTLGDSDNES
UniProt Q9UM11, whole entry, looked up: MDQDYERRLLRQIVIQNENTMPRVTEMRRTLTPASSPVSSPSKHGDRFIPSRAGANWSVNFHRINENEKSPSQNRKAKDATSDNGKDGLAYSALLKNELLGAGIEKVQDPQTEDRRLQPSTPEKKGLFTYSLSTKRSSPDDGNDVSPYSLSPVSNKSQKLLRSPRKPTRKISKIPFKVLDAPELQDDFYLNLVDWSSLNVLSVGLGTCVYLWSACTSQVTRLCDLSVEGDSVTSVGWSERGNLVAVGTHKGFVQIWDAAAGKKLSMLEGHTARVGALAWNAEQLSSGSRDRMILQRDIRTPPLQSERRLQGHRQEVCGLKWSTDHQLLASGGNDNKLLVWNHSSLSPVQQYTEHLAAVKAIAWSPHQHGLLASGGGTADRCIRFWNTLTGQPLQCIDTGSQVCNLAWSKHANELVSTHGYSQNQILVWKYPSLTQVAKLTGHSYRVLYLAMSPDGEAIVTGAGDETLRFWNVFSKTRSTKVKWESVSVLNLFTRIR
UniProt Q10471: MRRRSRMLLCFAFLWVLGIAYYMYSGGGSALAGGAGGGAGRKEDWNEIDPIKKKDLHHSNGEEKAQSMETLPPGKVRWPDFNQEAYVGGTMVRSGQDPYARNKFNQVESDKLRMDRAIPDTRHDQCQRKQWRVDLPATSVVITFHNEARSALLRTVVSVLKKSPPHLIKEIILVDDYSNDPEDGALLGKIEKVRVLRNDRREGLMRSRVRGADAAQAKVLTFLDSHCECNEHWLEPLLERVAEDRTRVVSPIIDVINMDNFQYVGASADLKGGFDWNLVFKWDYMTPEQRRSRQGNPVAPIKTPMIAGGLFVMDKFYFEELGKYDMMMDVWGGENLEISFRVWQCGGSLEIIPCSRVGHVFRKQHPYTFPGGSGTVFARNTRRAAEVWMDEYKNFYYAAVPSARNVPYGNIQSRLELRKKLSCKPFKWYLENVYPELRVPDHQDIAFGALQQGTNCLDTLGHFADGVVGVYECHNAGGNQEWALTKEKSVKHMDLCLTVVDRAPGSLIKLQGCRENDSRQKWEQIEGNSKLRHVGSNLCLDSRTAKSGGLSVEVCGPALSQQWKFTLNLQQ
UniProt P02792: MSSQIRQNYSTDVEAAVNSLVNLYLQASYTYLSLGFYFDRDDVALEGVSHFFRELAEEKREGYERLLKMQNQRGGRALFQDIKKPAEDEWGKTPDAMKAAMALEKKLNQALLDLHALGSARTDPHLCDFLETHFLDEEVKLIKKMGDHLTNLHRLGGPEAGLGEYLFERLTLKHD
UniProt P35637: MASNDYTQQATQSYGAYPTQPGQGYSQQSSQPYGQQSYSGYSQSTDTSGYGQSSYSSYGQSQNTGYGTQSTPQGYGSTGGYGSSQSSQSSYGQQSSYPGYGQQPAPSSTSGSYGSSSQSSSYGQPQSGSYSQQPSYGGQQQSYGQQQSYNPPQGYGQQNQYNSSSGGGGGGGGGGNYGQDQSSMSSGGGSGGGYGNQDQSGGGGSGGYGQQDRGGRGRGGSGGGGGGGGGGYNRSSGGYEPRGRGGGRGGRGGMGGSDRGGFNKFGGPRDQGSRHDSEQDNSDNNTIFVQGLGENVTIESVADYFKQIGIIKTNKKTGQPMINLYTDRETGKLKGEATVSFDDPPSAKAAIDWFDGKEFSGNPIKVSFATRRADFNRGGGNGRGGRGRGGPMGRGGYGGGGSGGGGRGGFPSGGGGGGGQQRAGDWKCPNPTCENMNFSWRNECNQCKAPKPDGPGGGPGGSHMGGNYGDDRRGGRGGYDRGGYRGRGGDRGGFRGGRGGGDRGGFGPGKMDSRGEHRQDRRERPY
UniProt P22466: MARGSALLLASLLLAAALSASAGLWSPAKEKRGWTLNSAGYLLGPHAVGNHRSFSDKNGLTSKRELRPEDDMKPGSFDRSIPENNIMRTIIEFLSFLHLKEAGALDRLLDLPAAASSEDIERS
UniProt P55789: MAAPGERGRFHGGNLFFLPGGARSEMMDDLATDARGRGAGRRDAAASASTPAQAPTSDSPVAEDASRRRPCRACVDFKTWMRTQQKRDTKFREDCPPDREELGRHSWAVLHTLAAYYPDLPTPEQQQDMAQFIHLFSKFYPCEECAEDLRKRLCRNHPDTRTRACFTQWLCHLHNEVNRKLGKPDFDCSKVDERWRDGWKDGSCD
UniProt P60520, whole entry, looked up: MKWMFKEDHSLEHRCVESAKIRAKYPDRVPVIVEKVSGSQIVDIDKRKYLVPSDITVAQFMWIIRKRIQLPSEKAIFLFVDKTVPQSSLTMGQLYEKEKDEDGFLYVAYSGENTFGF
UniProt Q8N4A0: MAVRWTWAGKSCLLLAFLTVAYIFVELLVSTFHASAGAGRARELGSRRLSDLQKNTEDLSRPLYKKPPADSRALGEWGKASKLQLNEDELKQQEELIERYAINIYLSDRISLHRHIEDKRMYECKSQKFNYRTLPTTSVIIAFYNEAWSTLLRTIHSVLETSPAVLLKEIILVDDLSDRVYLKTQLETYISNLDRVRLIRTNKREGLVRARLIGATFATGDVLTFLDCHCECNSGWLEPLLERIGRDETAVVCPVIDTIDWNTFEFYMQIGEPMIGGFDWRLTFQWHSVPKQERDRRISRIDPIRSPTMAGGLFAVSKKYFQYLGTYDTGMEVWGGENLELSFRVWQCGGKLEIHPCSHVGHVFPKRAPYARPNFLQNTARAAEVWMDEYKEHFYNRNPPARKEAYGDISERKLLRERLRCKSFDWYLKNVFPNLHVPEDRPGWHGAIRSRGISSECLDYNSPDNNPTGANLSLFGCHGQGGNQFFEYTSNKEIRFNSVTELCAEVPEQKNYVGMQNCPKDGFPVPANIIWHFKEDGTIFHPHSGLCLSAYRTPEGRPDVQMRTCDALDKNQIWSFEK
UniProt Q9UJY4: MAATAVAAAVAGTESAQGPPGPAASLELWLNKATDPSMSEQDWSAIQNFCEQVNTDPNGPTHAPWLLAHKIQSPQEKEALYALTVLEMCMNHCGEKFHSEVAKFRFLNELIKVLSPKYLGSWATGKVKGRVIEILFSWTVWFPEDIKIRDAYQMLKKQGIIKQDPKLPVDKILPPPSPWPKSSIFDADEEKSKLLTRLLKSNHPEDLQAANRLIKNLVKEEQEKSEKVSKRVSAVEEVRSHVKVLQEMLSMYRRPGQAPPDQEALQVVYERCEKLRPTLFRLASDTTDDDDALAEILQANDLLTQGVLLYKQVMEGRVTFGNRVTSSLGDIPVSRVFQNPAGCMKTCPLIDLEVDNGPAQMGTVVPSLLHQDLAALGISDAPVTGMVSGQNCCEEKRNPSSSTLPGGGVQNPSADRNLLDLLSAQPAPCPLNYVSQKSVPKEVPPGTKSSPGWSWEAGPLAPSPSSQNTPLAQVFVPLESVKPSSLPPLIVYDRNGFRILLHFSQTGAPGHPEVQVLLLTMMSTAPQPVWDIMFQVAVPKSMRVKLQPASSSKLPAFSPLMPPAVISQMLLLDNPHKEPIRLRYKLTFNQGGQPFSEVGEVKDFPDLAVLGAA
UniProt Q86SF2: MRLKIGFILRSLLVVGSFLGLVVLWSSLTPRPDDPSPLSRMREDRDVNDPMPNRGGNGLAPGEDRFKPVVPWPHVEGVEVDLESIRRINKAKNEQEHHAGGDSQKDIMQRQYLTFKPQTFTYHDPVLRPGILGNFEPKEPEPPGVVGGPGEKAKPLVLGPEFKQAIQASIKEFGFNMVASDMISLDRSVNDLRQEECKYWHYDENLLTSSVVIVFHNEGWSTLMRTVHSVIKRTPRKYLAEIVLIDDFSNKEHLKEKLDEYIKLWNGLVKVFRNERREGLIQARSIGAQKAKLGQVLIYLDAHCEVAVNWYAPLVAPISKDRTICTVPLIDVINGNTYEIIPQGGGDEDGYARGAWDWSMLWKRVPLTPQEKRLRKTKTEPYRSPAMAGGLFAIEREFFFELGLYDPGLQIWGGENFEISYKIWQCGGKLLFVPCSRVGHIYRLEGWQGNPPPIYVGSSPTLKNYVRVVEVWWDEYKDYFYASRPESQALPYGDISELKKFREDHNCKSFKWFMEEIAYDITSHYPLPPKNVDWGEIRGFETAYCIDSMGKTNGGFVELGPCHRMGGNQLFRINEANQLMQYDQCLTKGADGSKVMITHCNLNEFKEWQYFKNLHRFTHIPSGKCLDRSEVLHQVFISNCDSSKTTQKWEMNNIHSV
UniProt P04066: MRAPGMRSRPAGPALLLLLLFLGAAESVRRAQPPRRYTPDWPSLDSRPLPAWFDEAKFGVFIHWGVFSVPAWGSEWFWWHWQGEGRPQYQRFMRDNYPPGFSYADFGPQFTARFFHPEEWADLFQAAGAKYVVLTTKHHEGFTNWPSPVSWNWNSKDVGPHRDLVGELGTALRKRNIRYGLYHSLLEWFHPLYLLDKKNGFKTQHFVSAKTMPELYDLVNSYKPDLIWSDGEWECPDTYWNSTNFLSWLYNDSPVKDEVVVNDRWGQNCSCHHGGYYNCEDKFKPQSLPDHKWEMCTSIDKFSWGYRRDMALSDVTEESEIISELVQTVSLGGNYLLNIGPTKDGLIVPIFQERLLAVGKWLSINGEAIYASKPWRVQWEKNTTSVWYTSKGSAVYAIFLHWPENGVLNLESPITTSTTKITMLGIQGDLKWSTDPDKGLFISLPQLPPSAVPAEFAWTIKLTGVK
UniProt Q92538, whole entry, looked up: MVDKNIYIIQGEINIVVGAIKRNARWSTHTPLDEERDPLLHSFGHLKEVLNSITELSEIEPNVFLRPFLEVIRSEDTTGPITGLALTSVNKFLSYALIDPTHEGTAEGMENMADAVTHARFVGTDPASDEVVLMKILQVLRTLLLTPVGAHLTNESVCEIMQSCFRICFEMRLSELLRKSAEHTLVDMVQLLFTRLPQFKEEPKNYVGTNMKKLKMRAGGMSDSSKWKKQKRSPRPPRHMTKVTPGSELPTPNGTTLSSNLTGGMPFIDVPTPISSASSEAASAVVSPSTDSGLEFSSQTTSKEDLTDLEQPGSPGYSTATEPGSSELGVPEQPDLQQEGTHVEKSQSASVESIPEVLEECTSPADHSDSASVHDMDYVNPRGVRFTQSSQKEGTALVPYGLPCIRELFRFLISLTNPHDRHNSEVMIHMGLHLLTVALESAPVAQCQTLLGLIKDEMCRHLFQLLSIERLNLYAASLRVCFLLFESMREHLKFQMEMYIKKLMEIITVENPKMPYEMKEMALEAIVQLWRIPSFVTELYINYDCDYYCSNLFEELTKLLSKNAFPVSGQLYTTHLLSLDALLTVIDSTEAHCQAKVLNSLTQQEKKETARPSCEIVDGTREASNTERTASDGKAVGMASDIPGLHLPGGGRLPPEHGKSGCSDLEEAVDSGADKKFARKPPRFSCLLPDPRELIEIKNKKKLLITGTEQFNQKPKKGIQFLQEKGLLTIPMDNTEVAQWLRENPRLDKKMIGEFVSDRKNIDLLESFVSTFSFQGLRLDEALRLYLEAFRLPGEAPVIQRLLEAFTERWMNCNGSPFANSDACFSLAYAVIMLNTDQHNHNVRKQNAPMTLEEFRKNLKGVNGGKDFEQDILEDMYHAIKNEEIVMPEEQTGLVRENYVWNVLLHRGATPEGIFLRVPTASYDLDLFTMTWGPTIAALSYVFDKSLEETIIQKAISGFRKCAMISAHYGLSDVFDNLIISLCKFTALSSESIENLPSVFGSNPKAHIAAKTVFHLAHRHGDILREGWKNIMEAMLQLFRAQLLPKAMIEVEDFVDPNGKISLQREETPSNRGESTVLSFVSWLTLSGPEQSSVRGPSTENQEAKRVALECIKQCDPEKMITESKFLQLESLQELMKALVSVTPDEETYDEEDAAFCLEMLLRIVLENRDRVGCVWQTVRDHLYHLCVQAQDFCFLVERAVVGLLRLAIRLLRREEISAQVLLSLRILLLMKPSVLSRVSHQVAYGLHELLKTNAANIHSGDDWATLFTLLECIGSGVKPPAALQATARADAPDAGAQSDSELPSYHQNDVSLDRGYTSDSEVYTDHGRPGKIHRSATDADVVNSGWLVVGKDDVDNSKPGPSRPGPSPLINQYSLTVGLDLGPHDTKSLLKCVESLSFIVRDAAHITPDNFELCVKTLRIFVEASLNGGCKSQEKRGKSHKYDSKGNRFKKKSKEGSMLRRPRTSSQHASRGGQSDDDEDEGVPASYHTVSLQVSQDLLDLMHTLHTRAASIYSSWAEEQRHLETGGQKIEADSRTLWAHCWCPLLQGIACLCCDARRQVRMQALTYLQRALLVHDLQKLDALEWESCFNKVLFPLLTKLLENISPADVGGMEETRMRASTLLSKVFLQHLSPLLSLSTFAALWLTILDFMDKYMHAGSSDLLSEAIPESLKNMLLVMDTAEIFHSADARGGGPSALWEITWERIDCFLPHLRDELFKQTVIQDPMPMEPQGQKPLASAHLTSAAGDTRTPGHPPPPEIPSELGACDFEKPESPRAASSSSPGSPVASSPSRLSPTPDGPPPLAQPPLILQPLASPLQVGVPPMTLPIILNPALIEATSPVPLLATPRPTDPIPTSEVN

Experiments:
Test in all cases: log2 fold change, soluble protein after heating vs DMSO (PISA); higher = thermal stabilisation; K562 cells, 10 uM, 30 min; active = over 0.2 and 3.5 SD of the protein, either way, in both replicates (recomputed)
[1] = compound: COC1=CC=C(C=C1)CN2C=CC3=C2C=C(C=C3)C(=O)NO
Method in brief: (§1)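 Thermal stability values are relative to control samples and come from duplicates. They are expressed as log2 fold changes. For measurement, K562 cells (2×10^6 cells/mL) received 10 μM compound for 30 min, and aliquots were heated for 3 min over 48°C-58°C, pooled, and extracted at 4°C in PBS with 0.5% NP-40. Soluble protein, the supernatant after 21,000xg for 90 min, was quantified by TMTpro 16plex LC-MS/MS with equalised channel sums.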

filanesib = compound: CON(C)C(=O)N1N=C(c2cc(F)ccc2F)S[C@@]1(CCCN)c1ccccc1 [filanesib]
Method in brief: as §1

zotarolimus = compound: CO[C@H]1C[C@@H]2CC[C@@H](C)[C@@](O)(O2)C(=O)C(=O)N2CCCC[C@H]2C(=O)O[C@H]([C@H](C)C[C@@H]2CC[C@H](n3cnnn3)[C@H](OC)C2)CC(=O)[C@H](C)/C=C(\C)[C@@H](O)[C@@H](OC)C(=O)[C@H](C)C[C@H](C)/C=C/C=C/C=C/1C [zotarolimus]
Method in brief: as §1

idasanutlin = compound: COc1cc(C(=O)O)ccc1NC(=O)[C@@H]1N[C@@H](CC(C)(C)C)[C@](C#N)(c2ccc(Cl)cc2F)[C@H]1c1cccc(Cl)c1F [idasanutlin]
Method in brief: as §1

alisertib = compound: COc1cc(Nc2ncc3c(n2)-c2ccc(Cl)cc2C(c2c(F)cccc2OC)=NC3)ccc1C(=O)O [alisertib]
Method in brief: as §1

[2] = compound: COc1cc2nc(-c3cc(F)ccc3O)nc(N[C@@H]3CNC[C@H]3C(C)(C)O)c2cc1OC
Method in brief: as §1

gefitinib = compound: COc1cc2ncnc(Nc3ccc(F)c(Cl)c3)c2cc1OCCCN1CCOCC1 [gefitinib]
Method in brief: as §1

[3] = compound: COc1cccc2cc(-c3nc([C@H]4CC[C@H](C(=O)O)CC4)n4ncnc(N)c34)[nH]c12
Method in brief: as §1

lapatinib = compound: CS(=O)(=O)CCNCc1ccc(-c2ccc3ncnc(Nc4ccc(OCc5cccc(F)c5)c(Cl)c4)c3c2)o1 [lapatinib]
Method in brief: as §1

pictilisib = compound: CS(=O)(=O)N1CCN(Cc2cc3nc(-c4cccc5[nH]ncc45)nc(N4CCOCC4)c3s2)CC1 [pictilisib]
Method in brief: as §1

Measured: log2 fold change

GFM1 (UniProt Q96RP9)
inactive: [1] 0.059 | filanesib -0.128 | zotarolimus 0.022 | idasanutlin -0.102 | alisertib 0.034 | [2] 0.033 | gefitinib 0.023 | [3] 0.04 | lapatinib -0.006 | pictilisib 0.042

GDI2 (UniProt Q5SX86)
inactive: [1] -0.041

FTH1 (UniProt P02794)
inactive: [1] -0.111 | filanesib 0.057 | zotarolimus -0.019 | idasanutlin 0.136 | alisertib -0.061 | [2] -0.08 | gefitinib -0.071 | [3] -0.062 | lapatinib 0.02 | pictilisib -0.009

FZR1 (UniProt Q9UM11)
inactive: [1] 0.154

GCC2 (UniProt Q8IWJ2)
inactive: [1] -0.037 | filanesib 0.137 | zotarolimus 0.074 | idasanutlin 0.065 | alisertib -0.046 | [2] -0.037 | gefitinib 0.024 | [3] -0.11 | lapatinib 0.056 | pictilisib 0.014

GBA2 (UniProt Q9HCG7)
inactive: [1] -0.064 | filanesib 0.117 | zotarolimus 0.087 | idasanutlin -0.042 | alisertib 0.067 | [2] 0.049 | gefitinib 0.084 | [3] -0.062 | lapatinib 0.011

GDE1 (UniProt Q9NZC3)
inactive: [1] 0.046 | filanesib -0.102 | zotarolimus 0.043 | idasanutlin -0.064 | alisertib -0.176 | [2] 0.012 | gefitinib 0.008 | [3] 0.01 | lapatinib -0.011

GALNT2 (UniProt Q10471)
inactive: [1] 0.018 | filanesib -0.025 | zotarolimus 0.043 | idasanutlin -0.065 | alisertib -0.03 | [2] -0.042 | gefitinib 0.059 | [3] -0.012 | lapatinib 0.036 | pictilisib -0.01

GARS1 (UniProt P41250)
inactive: [1] 0.002 | filanesib -0.028 | zotarolimus -0.012 | idasanutlin -0.021 | alisertib -0.046 | [2] -0.017 | gefitinib -0.006 | [3] 0.054 | lapatinib -0.032 | pictilisib -0.012

FTL (UniProt P02792)
inactive: [1] -0.013 | filanesib 0.251 | zotarolimus 0.053 | idasanutlin 0.211 | alisertib -0.039 | [2] -0.202 | gefitinib -0.097 | [3] -0.05 | lapatinib 0 | pictilisib 0.003

FUS (UniProt P35637)
inactive: [1] -0.045 | filanesib 0.105 | zotarolimus -0.022 | idasanutlin 0.147 | alisertib -0.097 | [2] 0.023 | gefitinib 0.016 | [3] 0.008 | lapatinib 0.075 | pictilisib -0.096

GAL (UniProt P22466)
inactive: [1] -0.067

FOXRED1 (UniProt Q96CU9)
inactive: [1] 0.024 | filanesib -0.042 | zotarolimus 0.004 | idasanutlin -0.121 | alisertib -0.018 | [2] 0.052 | gefitinib 0.002 | [3] 0.064 | lapatinib -0.035 | pictilisib 0.065

GFER (UniProt P55789)
inactive: [1] -0.181 | filanesib -0.024 | zotarolimus -0.011 | idasanutlin -0.139 | alisertib 0.078 | [2] -0.078 | gefitinib -0.015 | [3] -0.047 | lapatinib 0.029 | pictilisib 0.029

FURIN (UniProt P09958)
inactive: [1] 0.014 | filanesib 0.006 | zotarolimus 0.015 | idasanutlin -0.027 | alisertib 0.108 | [2] 0.038 | gefitinib -0.015 | [3] 0.037 | lapatinib -0.088 | pictilisib 0.024

2 neighbouring records out of the list so far, for reference:
FUS (UniProt P35637)
inactive: [1] -0.045 | filanesib 0.105 | zotarolimus -0.022 | idasanutlin 0.147 | alisertib -0.097 | [2] 0.023 | gefitinib 0.016 | [3] 0.008 | lapatinib 0.075 | pictilisib -0.096

GAL (UniProt P22466)
inactive: [1] -0.067

Continuation:

FTO (UniProt Q9C0B1)
inactive: [1] -0.134 | filanesib -0.04 | zotarolimus -0.029 | idasanutlin 0.046 | alisertib -0.044 | [2] 0.039 | gefitinib 0.004 | [3] -0.013 | lapatinib -0.021 | pictilisib 0.088

GABARAPL2 (UniProt P60520)
inactive: [1] 0.185 | filanesib -0.01 | zotarolimus -0.036 | idasanutlin -0.072 | alisertib 0.016 | [2] 0.033 | gefitinib -0.014 | [3] 0 | lapatinib -0.006 | pictilisib -0.059

GEMIN4 (UniProt P57678)
inactive: [1] -0.051 | filanesib 0.095 | zotarolimus 0.018 | idasanutlin 0.271 | alisertib -0.305 | [2] -0.018 | gefitinib -0.058 | [3] -0.323 | lapatinib 0.16 | pictilisib -0.021

FUNDC2 (UniProt Q9BWH2)
inactive: [1] -0.057 | filanesib -0.052 | zotarolimus -0.035 | idasanutlin 0.024 | alisertib -0.069 | [2] 0 | gefitinib 0.016 | [3] 0.057 | lapatinib -0.066 | pictilisib 0.044

GDPD5 (UniProt Q8WTR4)
inactive: [1] -0.089

GEMIN2 (UniProt O14893)
inactive: [1] -0.099 | filanesib 0.132 | zotarolimus -0.093 | idasanutlin 0.034 | alisertib -0.017 | [2] -0.045 | gefitinib 0.032 | [3] -0.029 | lapatinib 0.034 | pictilisib 0.016

GALM (UniProt Q96C23)
inactive: [1] -0.019 | filanesib -0.081 | zotarolimus 0.001 | idasanutlin -0.068 | alisertib -0.114 | [2] 0.006 | gefitinib 0.06 | [3] -0.044 | lapatinib -0.033 | pictilisib 0.058

GGH (UniProt Q92820)
inactive: [1] -0.045 | filanesib -0.033 | zotarolimus -0.024 | idasanutlin -0.021 | alisertib -0.009 | [2] -0.008 | gefitinib -0.033 | [3] 0.057 | lapatinib 0.002 | pictilisib 0.034

FXN (UniProt Q16595)
inactive: [1] -0.143 | filanesib -0.09 | zotarolimus 0.022 | idasanutlin -0.045 | alisertib 0.027 | [2] -0.049 | gefitinib -0.052 | [3] 0.022 | lapatinib -0.014 | pictilisib -0.026

GALNT4 (UniProt Q8N4A0)
inactive: [1] -0.029 | filanesib 0.066 | zotarolimus -0.017 | idasanutlin -0.099 | alisertib -0.015 | [2] 0.011 | gefitinib 0.025 | [3] 0.025 | lapatinib -0.028 | pictilisib 0.172

G6PD (UniProt E7EUI8)
inactive: [1] -0.213

GGA2 (UniProt Q9UJY4)
inactive: [1] 0.012 | filanesib -0.09 | zotarolimus 0.069 | idasanutlin -0.017 | alisertib -0.067 | [2] 0.181 | gefitinib -0.004 | [3] 0.112 | lapatinib -0.027

FUT4 (UniProt P22083)
inactive: [1] -0.167

GGA3 (UniProt Q9NZ52)
inactive: [1] -0.081 | filanesib 0.037 | zotarolimus 0.053 | idasanutlin 0.056 | alisertib -0.035 | [2] 0.093 | gefitinib 0.018 | [3] -0.043 | lapatinib 0.003 | pictilisib -0.048

GALNT7 (UniProt Q86SF2)
inactive: [1] -0.011 | filanesib -0.048 | zotarolimus 0 | idasanutlin -0.062 | alisertib -0.087 | [2] -0.149 | gefitinib -0.005 | [3] 0.002 | lapatinib -0.019 | pictilisib 0.043

GET4 (UniProt Q7L5D6)
inactive: [1] -0.005 | filanesib 0.017 | zotarolimus -0.007 | idasanutlin 0.12 | alisertib 0.008 | [2] -0.008 | gefitinib 0.001 | [3] -0.048 | lapatinib 0.025 | pictilisib 0.093

GGA1 isoform 6 (UniProt Q9UJY5)
inactive: [1] -0.036 | filanesib 0.036 | zotarolimus 0.007 | idasanutlin -0.05 | alisertib -0.014 | [2] 0.03 | gefitinib 0.031 | [3] 0.063 | lapatinib 0.023 | pictilisib 0.054

FUCA1 (UniProt P04066)
inactive: [1] -0.014 | filanesib -0.057 | zotarolimus -0.025 | idasanutlin -0.044 | alisertib -0.004 | [2] -0.113 | gefitinib 0.003 | [3] 0.1 | lapatinib 0.047 | pictilisib 0

FXR1 (UniProt P51114)
inactive: [1] -0.068 | filanesib 0.383 | zotarolimus 0.069 | idasanutlin 0.304 | alisertib -0.143 | [2] -0.109 | gefitinib 0.005 | [3] -0.225 | lapatinib 0.09 | pictilisib -0.05

GBF1 (UniProt Q92538)
inactive: [1] -0.005 | filanesib 0.038 | zotarolimus 0.008 | idasanutlin -0.037 | alisertib -0.013 | [2] 0.025 | gefitinib -0.012 | [3] -0.054 | lapatinib -0.036 | pictilisib -0.036
